{
  "source": "patent US20240327829A1",
  "about": "“CONJUGATE OF SAPONIN, OLIGONUCLEOTIDE AND GALNAC” (priority 2020, published 2024)",
  "type_in_all_cases": "cell-based, human",
  "key": {"HepG2 cells": {"tested_on": "HepG2 cells", "assay": "Cell viability / cell killing assay (MTS)", "settings": "absence of CD71-saporin"}, "Huh7 cells": {"tested_on": "Huh7 cells", "assay": "Cell viability / cell killing assay (MTS)", "settings": "absence of CD71-saporin"}, "[1]": {"tested_on": "apoB gene expression in Huh7 cells", "assay": "ApoB gene silencing (gene expression analysis)", "method": "(§1) RNA from cells was isolated and analysed according to standard protocols (Biorad). qPCR primers that were used are indicated in Table A2.\n(§2) RNA isolation and gene expression analysis from primary mouse and human hepatocytes RNA from cells was isolated using TRI Reagent® Solution (Thermo Scientific) according to the manufacturer's instruction. Conversion into cDNA was performed using iScript™ cDNA Synthesis Kit (BioRad) using standard protocols. ApoB expression levels and levels of specific hepatocyte housekeeping genes were determined using quantitative real-time PCR assays (qRT-PCR) using iTaq™ Universal SYBR® Green Supermix (BioRad) and the Light Cycler 480 (Roche Diagnostics, Rotkreuz, Switzerland) with specific DNA primers, listed in Table A4 (study A) and Table A7 (study B), respectively. Analysis was done by the […] to determine apoB expression relative to 2 hepatocyte-specific housekeeping control mRNAs. Each analysis reaction was performed in triplicate."}, "[2]": {"tested_on": "apoB gene expression in HepG2 cells", "assay": "ApoB gene silencing (gene expression analysis)", "method": "as §1, §2"}, "[3]": {"tested_on": "HSP27 gene expression in HepG2 cells", "assay": "HSP27 gene silencing (gene expression analysis, qPCR)", "settings": "conjugate alone", "excerpt": "as §1"}, "[4]": {"tested_on": "HSP27 gene expression in Huh7 cells", "assay": "HSP27 gene silencing (gene expression analysis, qPCR)", "settings": "conjugate alone", "excerpt": "as §1"}, "[5]": {"settings": "+ fixed 4000 nM trivalent-GalNAc-L-SO1861 (DAR1)"}},
  "note": "Some results were stated once for a whole list of compounds, not compound by compound. [BNA] = bridged nucleic acid (BNA) nucleotide, BNA type not stated for this oligo; [BNANC] = BNA^NC (2'-O,4'-aminoethylene bridged) nucleotide; d = 2'-deoxy (DNA)",
  "data": [
    {"compound": "CC(=O)NC1C(OCCCCC(=O)NCCCNC(=O)CCOCC(COCCC(=O)NCCCNC(=O)CCCCOC2OC(CO)C(O)C(O)C2NC(C)=O)(COCCC(=O)NCCCNC(=O)CCCCOC2OC(CO)C(O)C(O)C2NC(C)=O)NC(=O)CCCCCCCCCCC(=O)NCCCN=[N+]=[N-])OC(CO)C(O)C1O", "note": "(centres unmarked) [trivalent-GalNAc]", "values": [
      {"measurement": "concentration up to which single compound is not toxic", "setting": "HepG2 cells", "result": "≥ 15", "unit": "µM"},
      {"measurement": "concentration up to which single compound is not toxic", "setting": "Huh7 cells", "result": "≥ 15", "unit": "µM"}
    ]},
    {"compound": "trivalent-GalNAc-L-ApoBBNA: ApoBBNA (SEQ ID NO: 2) conjugated to trivalent-GalNAc, labile conjugation (GCCTCAGTCTGCTTCGCACC; sugars from the 5' end [BNA]5 d10 [BNA]5, backbone and methylation of C not given here; further chemistry not fully specified)", "values": [
      {"measurement": "IC50", "setting": "[1]; conjugate alone", "result": "> 1000", "unit": "nM"},
      {"measurement": "IC50", "setting": "[2]; conjugate alone", "result": "> 2000", "unit": "nM"}
    ]},
    {"compound": "trivalent-GalNAc-L-ApoBscrambledBNA: off-target control: scrambled ApoB BNA (SEQ ID NO: 3) on trivalent GalNAc, labile (GGCCTCTCTACACCGCTCGT; sugars from the 5' end [BNA]5 d10 [BNA]5, backbone and methylation of C not given here; further chemistry not fully specified) [reference compound]", "values": [
      {"measurement": "IC50", "setting": "[1]; [5]", "result": "> 1000", "unit": "nM"},
      {"measurement": "IC50", "setting": "[2]; [5]", "result": "> 1000", "unit": "nM"}
    ]},
    {"compound": "trivalent-GalNAc-L-HSP27BNA: HSP27BNA (SEQ ID NO: 1) conjugated to trivalent-GalNAc, labile conjugation (GGCACAGCCAGTGGCG; sugars from the 5' end [BNANC]3 d10 [BNANC]3, backbone and methylation of C not given here; further chemistry not fully specified)", "values": [
      {"measurement": "IC50", "setting": "[3]", "result": "> 2000", "unit": "nM"},
      {"measurement": "IC50", "setting": "[4]", "result": "> 2000", "unit": "nM"}
    ]},
    {"compound": "trivalent-GalNAc-S-ApoBBNA: ApoBBNA (SEQ ID NO: 2) conjugated to trivalent-GalNAc, stable conjugation (GCCTCAGTCTGCTTCGCACC; sugars from the 5' end [BNA]5 d10 [BNA]5, backbone and methylation of C not given here; further chemistry not fully specified)", "values": [
      {"measurement": "IC50", "setting": "[1]; conjugate alone", "result": "> 1000", "unit": "nM"},
      {"measurement": "IC50", "setting": "[2]; conjugate alone", "result": "> 2000", "unit": "nM"}
    ]},
    {"compound": "trivalent-GalNAc-S-ApoBscrambledBNA: off-target control: scrambled ApoB BNA (SEQ ID NO: 3) on trivalent GalNAc, stable (GGCCTCTCTACACCGCTCGT; sugars from the 5' end [BNA]5 d10 [BNA]5, backbone and methylation of C not given here; further chemistry not fully specified) [reference compound]", "values": [
      {"measurement": "IC50", "setting": "[1]; [5]", "result": "> 1000", "unit": "nM"},
      {"measurement": "IC50", "setting": "[2]; [5]", "result": "> 1000", "unit": "nM"}
    ]},
    {"compound": "trivalent-GalNAc-S-HSP27BNA: HSP27BNA (SEQ ID NO: 1) conjugated to trivalent-GalNAc, stable conjugation (GGCACAGCCAGTGGCG; sugars from the 5' end [BNANC]3 d10 [BNANC]3, backbone and methylation of C not given here; further chemistry not fully specified)", "values": [
      {"measurement": "IC50", "setting": "[3]", "result": "> 2000", "unit": "nM"},
      {"measurement": "IC50", "setting": "[4]", "result": "> 2000", "unit": "nM"}
    ]}
  ]
}
